Experimental data reported in patent US6506880B2, “Synthetic peptides that enhance atherogenic lipoprotein uptake and lower plasma cholesterol” (The UAB Research Foundation, priority 1998, dated 2003).
“Also recorded” adds a separate entry of the source.

Assays:
LDL = assay: Binding of the peptides to LDL, agarose gel electrophoresis; set-up: species or system human
Procedure: Agarose gel electrophoresis was carried out according to the procedure of Asztalos (22). LDL and the LDL-peptide mixture were electrophoresed on a 0.7% agarose gel. Tris-tricine buffer (25 mM, pH 8.6) was used for both gel and electrode buffers. Since the peptides are positively charged, the wells were made in the center of the gel to allow for movement in both directions. 2 μl samples (containing about 5 μg of LDL) were diluted with 2 μl of Tris-tricine buffer containing 10% glycerol and bromophenol blue. Samples were eletrophoresed at a constant voltage of 250 volts for about 2 h or until the dye reached the top of the gel. After the run, the gel was stained with Coomassie blue. In order to determine the stoichiometry of binding, ^125I-labeled peptides were used and the stained bands were excised and counted to determine the ratio of peptide to LDL.
Peptides were incubated at room temperature with LDL at various ratios for 1 h and then analyzed by agarose gel electrophoresis (FIG. 2). […] At a peptide:LDL ratio of 2.5:10 (w/w), no free peptide was detected (FIG. 2, lane 3). However, at higher peptide concentrations (5:10 and 10:10 w/w), free peptide was detected (stained material moving toward the cathode, FIG. 2, lane 6). […] Using ^125I labeled Ac-hE18A-NH2, the stoichiometry was determined to be 30 molecules of peptide to one of LDL (assuming one molecule of ApoB per LDL particle). […]

VLDL = assay: Displacement of apolipoproteins from VLDL (SDS-PAGE and immunoprecipitation); set-up: species or system human; settings: for Displacement of apo E from VLDL: VLDL:peptide 1:0.15 to 1:0.6 w/w
Procedure: The gel is stained with Coomassie Brilliant blue. Lanes: 1: VLDL alone; 2: VLDL-Ac-hE18A-NH2 (1:0.15 w/w); 3: Molecular weight standards; 4: VLDL-Ac-hE18A-NH2 (1:0.3 w/w); 5: VLDL-Ac-hE18A-NH2 (1:0.6 w/w). The positions of the apolipoproteins and the peptide are clearly marked. The numbers indicate the molecular weights of the standards. Each of the lanes contains the same amount of VLDL.
The VLDL and VLDL-Ac-hE 18A-NH2 were treated with antibodies to apo B, apoCs, and apo E The apolipoproteins were thus precipitated and the resulting turbidity was measured at 405 nm. Turbidity was proportional to the amount of the apolipoprotein present on VLDL. […] Apo B, Apo Cs and Apo E The first bar: VLDL alone; the second bar: VLDL-Ac-hE 18A-NH2 (1:0.15 w/w); the third bar: VLDL-Ac-hE18A-NH2 (1:0.3 w/w); the fourth bar: VLDL-Ac-hE18A-NH2 (1:0.6 w/w).
VLDL was incubated with increasing concentrations of the peptide at the weight ratios indicated in the legend of FIG. 7 and the peptide-VLDL mixtures were subjected to density gradient ultracentrifugation to separate VLDL from free peptide. The apolipoprotein compositions of the reisolated VLDL-peptide complexes were examined by SDS-PAGE (FIG. 7). At equal VLDL particle concentration (determined by cholesterol concentration) the content of apo E relative to that of apo B was lower in peptide treated VLDL (lanes 2,4 and 5) than in VLDL alone (lane 1). It is evident that the decrease in apo E in VLDL is concomitant with the increase in peptide concentration. Negligible amounts of apo E were detectable in VLDL at the peptide:VLDL ratio of 0.6:1.0 (lane 5). […] The apo Cs have the same Rf as the peptide. The effect of the dual-domain peptide on the apo Cs was established by immunoprecipitation as described below.
The effect of this peptide on other VLDL proteins was also examined by immunoprecipitation of apo B, apo E and apo Cs. Antibodies specific to apo B, apo E and the apo Cs were used to precipitate the respective proteins from VLDL and the VLDL-Ac-hE18A-NH2 complex. The resulting turbidity was a quantitative measure of the amount of protein present in VLDL after treatment with the peptide. Levels of apo B and apo C were not changed by the binding of Ac-hE18A-NH2 while the levels of apo E were reduced (FIG. 8).

[1] = immunoprecipitation, turbidity at 405 nm

Row | Substance | Stoichiometry of peptide binding to LDL (LDL; 125I labeled peptide, assuming one ApoB per LDL particle) | Displacement of apo E from VLDL (VLDL) | Levels of apo B and apo C on VLDL (VLDL; [1]) | Levels of apo E on VLDL (VLDL; [1]) | Effect on mobility of LDL / association with LDL on agarose gel (LDL; 0.7% agarose gel, 1 h incubation at room temperature)
1 | Ac-hE18A-NH2: end protected analog of hE18A (acetyl and amino groups) (LRKLRKRLLRDWLKAFYDKVAEKLKEAF) | 30 molecules of peptide to one of LDL | able to displace apo E from VLDL; also recorded: a significant amount of apo E was displaced; also recorded: decrease in the amount of apo E with increasing concentration of peptide; also recorded: cause a displacement of apo E from VLDL; also recorded: apo E is displaced from VLDL | not changed | reduced | 
2 | Ac-18A-NH2: control peptide, end protected class A amphipathic helical peptide 18A (DWLKAFYDKVAEKLKGAF) [reference compound] |  | also displaces apo E although not all the protein is displaced; also recorded: a significant amount of apo E was displaced; also recorded: cause a displacement of apo E from VLDL |  |  | did not change the mobility of LDL
